Test in all cases: pull-down
Test [1] has as its target GST-Rab8a (UniProt P55258).
In test [2] the target is GST-Rab8a (UniProt P55258). This is another data set of the same source.
For test [3], the target named is GST-fusion protein of the Rab binding domain of OCRL (amino acids 539-901) (UniProt Q01968).

The chains behind the UniProt entries cited, without tags or fusion partners. Residues count along the entry.
UniProt P55258: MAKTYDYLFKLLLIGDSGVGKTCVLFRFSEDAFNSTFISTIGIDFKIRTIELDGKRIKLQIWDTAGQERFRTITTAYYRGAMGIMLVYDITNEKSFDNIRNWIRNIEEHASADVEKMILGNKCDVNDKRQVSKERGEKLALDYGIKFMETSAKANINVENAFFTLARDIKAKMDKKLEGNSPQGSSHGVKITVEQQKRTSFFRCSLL
UniProt Q01968, residues 539-901: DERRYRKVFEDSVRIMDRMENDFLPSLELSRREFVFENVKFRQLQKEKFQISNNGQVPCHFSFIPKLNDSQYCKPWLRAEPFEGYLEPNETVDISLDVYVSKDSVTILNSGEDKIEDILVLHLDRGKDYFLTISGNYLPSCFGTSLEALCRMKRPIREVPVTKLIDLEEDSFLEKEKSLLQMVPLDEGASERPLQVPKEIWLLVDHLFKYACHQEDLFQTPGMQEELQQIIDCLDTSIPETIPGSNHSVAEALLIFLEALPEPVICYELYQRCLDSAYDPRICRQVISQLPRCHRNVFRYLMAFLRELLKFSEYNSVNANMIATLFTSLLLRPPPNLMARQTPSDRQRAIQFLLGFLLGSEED
UniProt Q9JHG7: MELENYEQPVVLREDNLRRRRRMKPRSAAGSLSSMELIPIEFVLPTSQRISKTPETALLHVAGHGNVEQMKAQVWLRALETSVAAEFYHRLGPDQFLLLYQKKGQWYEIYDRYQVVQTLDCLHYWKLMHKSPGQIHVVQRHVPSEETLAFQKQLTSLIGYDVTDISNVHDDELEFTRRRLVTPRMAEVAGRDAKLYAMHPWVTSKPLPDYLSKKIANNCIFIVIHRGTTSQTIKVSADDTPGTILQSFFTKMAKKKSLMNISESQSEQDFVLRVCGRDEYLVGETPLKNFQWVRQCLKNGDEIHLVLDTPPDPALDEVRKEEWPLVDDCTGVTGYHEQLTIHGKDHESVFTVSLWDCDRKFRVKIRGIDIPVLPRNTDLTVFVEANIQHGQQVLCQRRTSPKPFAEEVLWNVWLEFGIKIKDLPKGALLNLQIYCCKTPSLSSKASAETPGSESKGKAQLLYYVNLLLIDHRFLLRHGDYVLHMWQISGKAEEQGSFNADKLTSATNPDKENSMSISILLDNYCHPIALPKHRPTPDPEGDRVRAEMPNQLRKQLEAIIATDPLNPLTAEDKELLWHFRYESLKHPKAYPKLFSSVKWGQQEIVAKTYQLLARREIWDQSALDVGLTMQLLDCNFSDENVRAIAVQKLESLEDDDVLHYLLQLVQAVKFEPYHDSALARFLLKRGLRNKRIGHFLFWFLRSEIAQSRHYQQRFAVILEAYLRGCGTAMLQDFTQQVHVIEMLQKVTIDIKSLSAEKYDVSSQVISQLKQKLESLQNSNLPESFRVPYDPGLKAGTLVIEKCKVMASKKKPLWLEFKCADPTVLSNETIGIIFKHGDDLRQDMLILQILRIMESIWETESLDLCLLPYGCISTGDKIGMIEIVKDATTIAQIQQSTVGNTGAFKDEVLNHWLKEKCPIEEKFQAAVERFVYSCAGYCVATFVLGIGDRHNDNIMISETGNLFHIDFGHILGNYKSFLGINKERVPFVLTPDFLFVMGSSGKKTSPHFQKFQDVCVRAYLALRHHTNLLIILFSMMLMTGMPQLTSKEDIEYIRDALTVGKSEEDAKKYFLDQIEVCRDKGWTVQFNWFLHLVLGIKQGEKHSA

Among the data in article doi:10.1101/2021.02.11.430773 are binding values, retold here.

Where two headings read alike, the source gives them in different places. No constants are given. Whether binding was seen depends on the method and setting. In cells and extracts the contact can be indirect. Some binding calls cover weakened binding; strength is not graded here.

With “PI3Kγ (p110 catalytic subunit) (from UniProt Q9JHG7 1-1102) (enzyme)”, the binding entry with GST-Rab8a [1] and with GST-Rab8a [2] was “binds” throughout. For Rab8a (from UniProt P55258 1-207), in test [3], the binding result is reported as “binds”.
